Data on 54 sequences can be found in article PMC7819943, “Rice protein-binding microarrays: a tool to detect cis-acting elements near promoter regions in rice”.

The list shows a part of the results.

The target in the assay is T1, OsSMF1 (Oryza sativa, UniProt Q6ZLB0 1-436).
T1 sequence: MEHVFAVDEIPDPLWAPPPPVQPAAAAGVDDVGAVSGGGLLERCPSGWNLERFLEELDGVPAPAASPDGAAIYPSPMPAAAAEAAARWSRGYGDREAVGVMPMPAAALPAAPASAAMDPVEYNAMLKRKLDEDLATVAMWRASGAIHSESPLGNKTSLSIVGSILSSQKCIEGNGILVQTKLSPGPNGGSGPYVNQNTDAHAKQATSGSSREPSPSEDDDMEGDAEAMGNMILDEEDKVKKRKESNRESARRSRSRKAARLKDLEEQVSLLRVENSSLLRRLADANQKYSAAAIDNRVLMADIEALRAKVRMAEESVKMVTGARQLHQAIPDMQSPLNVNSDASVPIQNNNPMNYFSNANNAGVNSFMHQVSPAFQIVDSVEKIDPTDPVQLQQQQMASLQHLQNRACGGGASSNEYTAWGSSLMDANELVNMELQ
Description: protein-binding microarray (RPBM); PBS, 2% BSA, 51.3 ng/ul salmon testes DNA, 50 uM zinc acetate, 200 nM TF, 25 C, 1 h; high values mean tight binding. Conditions: protein: recombinant; tags: N-terminal polyhistidine and DsRed monomer fusion (pET32a); chain copies: 2; label: CyDye5-dUTP incorporated in the synthesized complementary strand; 3' TTTTT single-stranded linker to array surface; dsDNA, one strand shown. Summed up:
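A custom Agilent array was converted to double-stranded form by primer extension with Cy5-dUTP and blocked with 2% BSA. Protein at 200 nM in PBS with 2% BSA, salmon testes DNA and 50 µM zinc acetate was applied for 1 h at 25 °C, followed by washing. The proteins were polyhistidine–DsRed N-terminal fusions of transcription factors, expressed in E. coli BL21-CodonPlus and Ni–NTA-purified. The binding signal is per-feature fluorescence intensity (arbitrary units) from an Axon 4000B scanner.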
For “ATGCGCTTACTATCTTGCAGCATTCCATCGCTGGTCCTTTCGGAGTCACCTAGTGCAG”, the binding signal was 4160 fluorescence intensity (a.u.).
For the sequence “AATGGTGTAATCATGGCGAATATGGTGTAGCATCAAAATCCGGAGTCACCTAGTGCAG”, the binding signal was 3330 fluorescence intensity (a.u.).
For “TAGATCATATAGCAGAGAGAGAGAGAGAGAGAGAGAGAGACGGAGTCACCTAGTGCAG”, the binding signal is 29600 fluorescence intensity (a.u.).
Take “GACGAATCTTTTGAGGCTAATTACGCCATGATTTGATAATCGGAGTCACCTAGTGCAG”: the binding signal is 3200 fluorescence intensity (a.u.).
For the sequence “ATATCAGTAAACAATATGTATGGGTCACAAAGAGTATGTGCGGAGTCACCTAGTGCAG”, the binding signal was 3480 fluorescence intensity (a.u.).
Consider “TTATATTTTGGGACGGAGTGAGTATGTGTGAATGCGATGTCGGAGTCACCTAGTGCAG”, for which the binding signal is 3210 fluorescence intensity (a.u.).
Under “GTAATCTTGTTCATCATCCTCATCGAGGAGCTTGAGGTATCGGAGTCACCTAGTGCAG” stands 3770 fluorescence intensity (a.u.).
On to “GGTGAGGATGACATGTGGGGCCCACGTGGGCCCCACCATTCGGAGTCACCTAGTGCAG”, for which the binding signal is 5840 fluorescence intensity (a.u.).
In the case of “TTGAATCGATTCCCTTGCCTCACCTCGCTGTTGTCGCCGACGGAGTCACCTAGTGCAG”, the binding signal was 3460 fluorescence intensity (a.u.).
Take “AATCAGAGAACGGATCTTATTGCTTGCCTCAAGTTGATTGCGGAGTCACCTAGTGCAG”: the binding signal was 28800 fluorescence intensity (a.u.).
Under “GCCATTCTCCGCTCGAAGGGGATCGATGTTGTGGATGGGTCGGAGTCACCTAGTGCAG” stands 3210 fluorescence intensity (a.u.); under “TCTCCTTTTGATAACTGGTACAACTCACCAATCTCAATGCCGGAGTCACCTAGTGCAG”, 3520 fluorescence intensity (a.u.).
As for “GGCAAGTAACTCAACAAGGTGTTTATGTTCTATTGTAAAACGGAGTCACCTAGTGCAG”, the binding signal was 12500 fluorescence intensity (a.u.).
As to “CACTACTATGACTCGTGGGACCCCACAGACTCGCAGAGCGCGGAGTCACCTAGTGCAG”, the binding signal is 5640 fluorescence intensity (a.u.).
In the case of “GTGACCGCCACGCCCGCTCCGCCGTCGGCCGCACACACGCCGGAGTCACCTAGTGCAG”, the binding signal is 6210 fluorescence intensity (a.u.).
The same measure for “ACTTTCTGATGTGAGGTATTGGTTGCCGCGTTGTCCTCTGCGGAGTCACCTAGTGCAG”: 5740 fluorescence intensity (a.u.); for “TGATCGGGATGACACGGCTGCTGCTGCTGTTGCTGCTTCCCGGAGTCACCTAGTGCAG”: 5840 fluorescence intensity (a.u.); for “CCTCCAAAATCCTAGGATGTGTCACATCCTTCCACAATCCCGGAGTCACCTAGTGCAG”: 3860 fluorescence intensity (a.u.).
“GGCGAACGCGTCGGCCCTGTCAGCGCCGCCTCGCGCGCCCCGGAGTCACCTAGTGCAG”: the binding signal is 5160 fluorescence intensity (a.u.).
Under “GAAGCAGCCGCGTCCGCAGTCGAAGCGCCCGCCTCAGCAGCGGAGTCACCTAGTGCAG” stands 3690 fluorescence intensity (a.u.); under “TGTCAGGTGACTGTACTGGATGGATAATTTTCGGCCCAAACGGAGTCACCTAGTGCAG”, 3960 fluorescence intensity (a.u.); under “AACCGGGACTACAAAGGGTTTCTCCACCAGTGACGTGTAACGGAGTCACCTAGTGCAG”, 17600 fluorescence intensity (a.u.).
Under “AAATCAAATGAGGCCACCTAAACATTCCTTTCCTGAAAATCGGAGTCACCTAGTGCAG” stands 21600 fluorescence intensity (a.u.); under “GTCTACGGCCCATCAGTTCGTAATGACCGGAATTTCGGCCCGGAGTCACCTAGTGCAG”, 3360 fluorescence intensity (a.u.); under “AGAATGTTCCAGTTTCTGAGAATGACTCATCTTCTGGAGACGGAGTCACCTAGTGCAG”, 9620 fluorescence intensity (a.u.).
For “GCAACAATGCCGTCACTGACTCGCCGCTCTGCTGCACGGACGGAGTCACCTAGTGCAG”, the binding signal is 3480 fluorescence intensity (a.u.).
In the case of “ACGCACACGCTGCCAACTAACCGGTGGGCCCGTCAATCCACGGAGTCACCTAGTGCAG”, the binding signal was 3690 fluorescence intensity (a.u.).
Regarding “CCGACGTTACGAACGTTTTAGGTGGGCCCCACGGTTTCTCCGGAGTCACCTAGTGCAG”, the binding signal was 17000 fluorescence intensity (a.u.).
Consider “GCGTAACTGCCGGTGGCTTTGTCGCAGGCGGCCACGCGCCCGGAGTCACCTAGTGCAG”, for which the binding signal is 23500 fluorescence intensity (a.u.).
“TGTTATTTAAGGAAGATAATCAAACTCACAATCAACGAACCGGAGTCACCTAGTGCAG”: the binding signal was 27600 fluorescence intensity (a.u.).
Consider “GCGATGCTACGTCAAGCTCGTTGCCACTCTTGCGTGAGGGCGGAGTCACCTAGTGCAG”, for which the binding signal is 4310 fluorescence intensity (a.u.).
As to “GGAAGCGCACGTCGCCGCGTGGCGCGTGGCAAGCGGCGTCCGGAGTCACCTAGTGCAG”, the binding signal was 6750 fluorescence intensity (a.u.).
Regarding “TTCCTTTTCTTGTTTATTGTGTTTGCATATCTGGACAAGTCGGAGTCACCTAGTGCAG”, the binding signal was 3240 fluorescence intensity (a.u.).
Consider “AGAGAGGGTGTTGTGAATTGGGAATTTCGGGATTATTGCTCGGAGTCACCTAGTGCAG”, for which the binding signal is 3140 fluorescence intensity (a.u.).
Turning to “CGACGCCTACCTCCTCCACCTCCTCATCCCGGCCTCCTCCCGGAGTCACCTAGTGCAG”, the binding signal was 5450 fluorescence intensity (a.u.).
Turning to “TTTGTTGAATTCGGTCAAAGTTTATTCAAATCCAGTCAAACGGAGTCACCTAGTGCAG”, the binding signal is 3320 fluorescence intensity (a.u.).
Take “GTATGCAATTAATTAAGTACGTGGAAGCTTGTTTTCTGTACGGAGTCACCTAGTGCAG”: the binding signal was 4630 fluorescence intensity (a.u.).
“GTCACAACGAATAATCAATGGCCTCTCCTGCATCACCAAGCGGAGTCACCTAGTGCAG”: the binding signal is 3660 fluorescence intensity (a.u.).
With “AATGCCTCAAATGCACAGTCTTCCTTCATATTATGTGGCACGGAGTCACCTAGTGCAG”, the binding signal was 3960 fluorescence intensity (a.u.).
As to “CACTCCCTCATACACGATGTGTCATAGGTAAACAACAAATCGGAGTCACCTAGTGCAG”, the binding signal is 4200 fluorescence intensity (a.u.).
The same measure for “CTTTGGCCGAGTTGGCACCACCATCAGATTCAGGCCTTCGCGGAGTCACCTAGTGCAG”: 5520 fluorescence intensity (a.u.).
With “CTAGCTTCCTCCATTTCCTAGCTTCCTCACATGGGCTACCCGGAGTCACCTAGTGCAG”, the binding signal is 22400 fluorescence intensity (a.u.).
Regarding “TCCGACTTGACTGCTATAAACTGATGACTCGTCGAAAAGCCGGAGTCACCTAGTGCAG”, the binding signal is 5890 fluorescence intensity (a.u.).
Take “TAGCCGGCCAGTCGAGTCGGAAACCCAGTTTGACACGGTTCGGAGTCACCTAGTGCAG”: the binding signal is 3340 fluorescence intensity (a.u.).
The same measure for “TTTCAACAGATATTTTATTGTGACGTTGCAATTACTAAAACGGAGTCACCTAGTGCAG”: 4950 fluorescence intensity (a.u.); for “CGCCAACGACGACGTGCGCACGCGTGGGCGCGCCCTTCTTCGGAGTCACCTAGTGCAG”: 3700 fluorescence intensity (a.u.).
On to “TCTACGGTTCTGCTTCAAGCAATTCAGCTAGTATCTCCATCGGAGTCACCTAGTGCAG”, for which the binding signal was 24700 fluorescence intensity (a.u.).
Take “AATTTCATTGCTTCAGAGGTTTTATGATCCTGACGTAGGACGGAGTCACCTAGTGCAG”: the binding signal was 6440 fluorescence intensity (a.u.).
Under “TGATCTGTCTCCGTGTACACGTGGCCTCTGAAATTTACGCCGGAGTCACCTAGTGCAG” stands 17700 fluorescence intensity (a.u.).
For “GATCAATCCATCGAGGTGTGACGCGCCATCTCGCCGCTCGCGGAGTCACCTAGTGCAG”, the binding signal is 3260 fluorescence intensity (a.u.).
With “AATCAGCGTGGGTCCCACCTGTCAATCTCAAACTTCCCTTCGGAGTCACCTAGTGCAG”, the binding signal is 3850 fluorescence intensity (a.u.).
Regarding “CAGCACAACCAGGCGATGCAAAATACTAAAGTTCCGGAGGCGGAGTCACCTAGTGCAG”, the binding signal is 15000 fluorescence intensity (a.u.).
Take “CCGTGCGAGACTACGTGTCTTCGGCTGTGCCTGTTCGCGACGGAGTCACCTAGTGCAG”: the binding signal is 6600 fluorescence intensity (a.u.).
Under “CTTCCCGTGGTCGACGTGGGCTATCACCGCCACGTTGCGGCGGAGTCACCTAGTGCAG” stands 6390 fluorescence intensity (a.u.).
